{
  "source": "paper PMC4164936",
  "about": "“The translation elongation factor eEF1A1 couples transcription to translation during heat shock response”",
  "target": "T1, eEF1A1 (Homo sapiens (HeLa S-100)) (UniProt P68104)",
  "T1 sequence (looked up, limits assumed)": "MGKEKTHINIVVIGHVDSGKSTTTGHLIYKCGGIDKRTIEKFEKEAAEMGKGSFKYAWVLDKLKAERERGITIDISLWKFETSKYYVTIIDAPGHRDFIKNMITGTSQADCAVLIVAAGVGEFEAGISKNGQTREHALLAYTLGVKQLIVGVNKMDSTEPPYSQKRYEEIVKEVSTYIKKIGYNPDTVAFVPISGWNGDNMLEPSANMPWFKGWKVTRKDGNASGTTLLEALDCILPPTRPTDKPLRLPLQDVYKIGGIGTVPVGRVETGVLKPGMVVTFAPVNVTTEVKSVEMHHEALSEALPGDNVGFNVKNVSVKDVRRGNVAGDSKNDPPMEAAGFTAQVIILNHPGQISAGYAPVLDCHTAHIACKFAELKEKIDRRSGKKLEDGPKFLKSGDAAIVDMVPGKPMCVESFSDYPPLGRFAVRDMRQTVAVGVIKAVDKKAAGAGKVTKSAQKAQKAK",
  "assay": "EMSA",
  "details": "RNA EMSA: purified eEF1A1 with 20 kcpm RNA (~0.1 pmol/ul), 50 uM GTP, 30 min, room temperature; protein stock in 50 mM Tris-HCl pH 7.5, 100 mM KCl, 0.5 mM EDTA, 2 mM DTT; native protein; label: 32P CTP; probe letters rebuilt from the primers and the …",
  "note": "The exact form of at least one protein or probe is not confirmed. A negative result means that nothing was seen under these conditions. Protein sequences can lack the tags named with them.",
  "data": [
    {"sequence": "GGGAUAAAAGCCCAGGGGCAAGCGGUCCGGAUAACGGCUAGCCUGAGGAGCUGCUGCGACAGUCCACUACCUUUUUCGAGAGUGACUCCCGUUGUCCCAAGGCUUCCCAGAGCGAACCUGUGCGGCUGCAGGCACCGGCGCGUCGAGUUUCCGGCGUCCGGAAGGACCGAGCUCUUCUCGCGGAUCCAGUGUUCCGUUUCCAGCCCCCAAUCUCAGAGCGGAGCCGACAGAGAGCAGGGAACCGGCA [HSP70 5'UTR]", "values": [
      {"measurement": "binding result", "value": "no binding"}
    ]}
  ]
}
